From patent US20050288222A1, “Methods for enhancing the bioavailability of a drug” (priority 2000, published 2005) come the findings set out here.

Chains of the proteins cited; added tags and fusions are not shown. Residues count along the entry.
UniProt P05067, 672-711 limits assumed: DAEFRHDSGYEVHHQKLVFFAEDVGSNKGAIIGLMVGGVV

In general, Kd refers to the free concentration of one partner at which half of the binding sites on the other are occupied at equilibrium, for simple one-to-one binding. Higher therefore signals weaker binding.

For this assay, the target named is B-amyloid (Homo sapiens, UniProt P05067). In words: KD of potent B-amyloid aggregation inhibitors (Table II). Format: binding.

`CC(C)C[C@@H](NC(=O)c1ccc(O)cc1)C(=O)N[C@@H](C(=O)N[C@H](Cc1ccccc1)C(=O)N[C@H](Cc1ccccc1)C(=O)N[C@H](C)C(N)=O)C(C)C` [PPI-558, 4-Hydroxybenzoyl-D-Leu-D-Val-D-Phe-D-Phe-D-Ala-NH2]: binding was put at a Kd of 2.82 nM. Consider `CN[C@H](CC(C)C)C(=O)N[C@@H](C(=O)N[C@H](Cc1ccccc1)C(=O)N[C@H](Cc1ccccc1)C(=O)N[C@H](CC(C)C)C(N)=O)C(C)C` [PPI-1019, N-methyl-(D-Leu-D-Val-D-Phe-D-Phe-D-Leu)-NH2], for which the Kd worked out at 0.5 nM.
